Test [1] has as its target STAT1, His-tagged, from pcDNA3.1-STAT1-6His (UniProt P42224). Description: co-IP; exogenous co-IP; pcDNA3.1-G3BP2-2Flag and pcDNA3.1-STAT1-6His co-transfected into HEK293T cells for 24 h; lysate incubated with antibody (AE005 or AE003, ABclonal) and protein (A + G) agarose at 4°C for 4 h, washed with PBS, western blotting. For orientation: A western blot detects proteins with antibodies after separation by electrophoresis.

Chains of the proteins cited; added tags and fusions are not shown.
UniProt P42224: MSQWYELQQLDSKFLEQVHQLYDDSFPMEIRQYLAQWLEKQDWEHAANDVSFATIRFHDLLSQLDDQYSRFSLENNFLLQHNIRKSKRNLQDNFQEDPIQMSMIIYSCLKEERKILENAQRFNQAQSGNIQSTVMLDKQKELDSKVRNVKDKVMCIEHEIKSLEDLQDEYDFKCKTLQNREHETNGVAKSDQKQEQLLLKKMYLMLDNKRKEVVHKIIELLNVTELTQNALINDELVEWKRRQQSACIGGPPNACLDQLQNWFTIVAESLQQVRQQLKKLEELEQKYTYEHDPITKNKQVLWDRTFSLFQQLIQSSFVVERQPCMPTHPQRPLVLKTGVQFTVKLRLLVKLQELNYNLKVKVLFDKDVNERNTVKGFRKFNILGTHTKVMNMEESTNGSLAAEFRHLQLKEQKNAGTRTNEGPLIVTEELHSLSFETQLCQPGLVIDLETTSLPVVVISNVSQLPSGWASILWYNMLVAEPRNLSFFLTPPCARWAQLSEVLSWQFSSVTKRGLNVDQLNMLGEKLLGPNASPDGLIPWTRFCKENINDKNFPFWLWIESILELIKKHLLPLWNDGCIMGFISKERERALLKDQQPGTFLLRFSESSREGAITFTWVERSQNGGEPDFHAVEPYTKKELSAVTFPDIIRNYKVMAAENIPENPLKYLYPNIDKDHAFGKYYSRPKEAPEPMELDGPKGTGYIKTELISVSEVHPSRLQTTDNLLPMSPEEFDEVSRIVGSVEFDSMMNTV

Test [2] concerns the target STAT1 in CVB5-infected SH-SY5Y cells (human (endogenous in SH-SY5Y)) (UniProt P42224). Description: co-IP; SH-SY5Y cells transfected with siLINC2781-1 or siNC, infected with CVB5 (MOI = 1) 24 h post-transfection, harvested at 24 hpi; co-IP of G3BP2 and STAT1.

These are yes or no findings as the source states them, for the method shown. In cells and extracts the contact can be indirect. Some binding calls cover weakened binding; strength is not graded here. For some assays here: Sequences can lack the tags named with a protein.

For two molecules, binding results are on record in paper PMC12306156.

B1: GTPase-activating protein SH3 domain-binding protein 2 (G3BP2), Flag-tagged, from pcDNA3.1-G3BP2-2Flag (protein, UniProt Q9UN86 1-482)
chain: MVMEKPSPLLVGREFVRQYYTLLNKAPEYLHRFYGRNSSYVHGGVDASGKPQEAVYGQNDIHHKVLSLNFSECHTKIRHVDAHATLSDGVVVQVMGLLSNSGQPERKFMQTFVLAPEGSVPNKFYVHNDMFRYEDEVFGDSEPELDEESEDEVEEEQEERQPSPEPVQENANSGYYEAHPVTNGIEEPLEESSHEPEPEPESETKTEELKPQVEEKNLEELEEKSTTPPPAEPVSLPQEPPKAFSWASVTSKNLPPSGTVSSSGIPPHVKAPVSQPRVEAKPEVQSQPPRVREQRPRERPGFPPRGPRPGRGDMEQNDSDNRRIIRYPDSHQLFVGNLPHDIDENELKEFFMSFGNVVELRINTKGVGGKLPNFGFVVFDDSEPVQRILIAKPIMFRGEVRLNVEEKKTRAARERETRGGGDDRRDIRRNDRGPGGPRGIVGGGMMRDRDGRGPPPRGGMAQKLGSGRGTGQMEGRFTGQRR
On to B1, for which the binding result in test [1] is “binds”.

B2: G3BP2 in CVB5-infected SH-SY5Y cells (protein, UniProt Q9UN86 1-482)
chain: B1 chain
With B2, in test [2], the binding result is reported as “binds”.
